From patent US5200343A, “Method for microbial dehalogenation of haloaliphatic compounds using a sulfate reducing bacteria, desulfomonile tiedjei” (Board of Trustees operating Michigan State University, priority 1991, dated 1993)
Entries after “also recorded” stand apart in the source; their conditions may differ. At least one compound was matched to its structure with a doubt left.

Assays:
[1] = tested on: Desulfomonile tiedjei cells; assay: Dehalogenation of halo compounds as substrates by 3-fluorobenzoate induced cells (Table 5, Example 4); format: cell-based; conditions: for Dehalogenation Rate: Table 5, 3-fluorobenzoate induced cells, average of triplicate assays
[2] = tested on: 3-Chlorobenzoate Dechlorination Activity; assay: Induction of 3-chlorobenzoate dechlorination activity by growth with 3-chlorobenzoate, analogues, or chloro- and iodobenzoates (Tables 4, 5); format: cell-based, Desulfomonile tiedjei; conditions: result in words
Protocol: Table 4. Cultures were grown in the presence of 3-chlorobenzoate or a 3-chlorobenzoate analogue substituted at the 1- or 3- position with the indicated functional groups. After several generations the culture were concentrated, washed and resuspended in anaerobic buffered salts containing 1 mM 3-chlorobenzoate and 10 mM pyruvate (as electron donor). […] After two hours samples were taken for benzoate analysis by HPLC. Values presented are the average of duplicate or triplicate cultures ± sample standard deviation.
Table 5. Chloro- and iodobenzoates were tested as inducers of 3-chlorobenzoate dehalogenation activity as described in the legend to Table 4. All compounds were initially at 500 μM; the 3-halo compounds were amended during growth as they were dehalogenated. Values presented are the average of duplicate or triplicate cultures± sample standard deviation.

[3] = tested on: Desulfomonile tiedjei cells; assay: Growth of cultures with putative inducers; format: cell-based; conditions: concentrations higher than 100 μM

Row | Compound | transformation as substrate by DCB-1 ([1]; result in words) | induction of dehalogenation activity [2] | effect on growth [3] | Dehalogenation Rate [1] [nMol/hr/mg protein] | dehalogenation by pre-induced cells ([1]; result in words)
1 | O=C(O)c1cccc(F)c1 [3-fluorobenzoate] | not transformed | gratuitous inducers; also recorded: efficient gratuitous inducer |  |  | 
2 | O=Cc1cccc(C(=O)O)c1 [3-formylbenzoate] |  |  | higher concentrations inhibited growth |  | 
3 | O=C(O)c1ccc(I)cc1 [4-iodobenzoate] |  | not inducers; also recorded: do not induce dehalogenation activity |  | 52 ± 1.0 | substrates for the dehalogenation reaction; also recorded: are dehalogenated by pre-induced cells
4 | O=C(O)c1cccc(I)c1 [3-iodo-, m-iodobenzoate] |  |  |  | 40 ± 0.2 | 
5 | O=C(O)c1ccccc1I [2-iodobenzoate] |  | not inducers; also recorded: do not induce dehalogenation activity |  | 38 ± 0.5 | substrates for the dehalogenation reaction; also recorded: are dehalogenated by pre-induced cells
6 | Cc1cccc(C(=O)O)c1 [3-methyl-benzoate] |  | gratuitous inducers |  |  | 
